According to PubChem BioAssay AID504467 (National Center for Advancing Translational Sciences (NCATS), 2011):
Among all 330,000 compounds or so, about 7,700 (2.3%) were called active. Inconclusive means that the source gave no clear call. Such entries were picked first, then a sample of the others. Calls follow the shape of the dose curve; as a rule, active = well fitted inhibition curve with a large enough effect; inconclusive = small, poorly fitted or top-dose-only effect, or effect the other way; inactive = flat fitted curve, though single readings scatter. Potencies beside an inconclusive call are fits to weak or partial responses and may not hold up.

assay: qHTS screen for small molecules that inhibit ELG1-dependent DNA repair in human embryonic kidney (HEK293T) cells expressing luciferase-tagged ELG1; conditions: HEK293T ELG1-luciferase reporter, luminescence, 16 h, DNA damage induced by 5-fluorouridine; activity change, negative = inhibition: at 46.1 µM (top of the series); also: nearly all actives have a fitted effect of over 55% in size
In short: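 Step one: seed 2,000 cells per well. Step two: pin-transfer compound or DMSO alongside 5-fluorouridine. Step three: incubate 16 hr, 37 °C, 5% CO2. Step four: add ONE-Glo, wait 30 min, read luminescence.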
% is scaled to controls: 0 for no effect and ±100 for the full control effect; potency is read from the fitted curve at half-maximal effect.

SMILES	Potency	activity change, negative = inhibition
CC1=CC(=C(C#N)C#N)C=C(C)N1CCN1CCN(C(=O)Nc2cccc(Cl)c2)CC1	inconclusive: 20.6 µM [activator, single point]	
O=C(NCc1ccc(F)cc1)C(=O)NCC1OCCCN1S(=O)(=O)c1cccs1 (stereo unspecified)		inactive: -9.15%
COc1cc2cnc(CCO[C@H]3CCCCO3)cc2cc1OC	inconclusive: 20.6 µM [activator, single point]	
COc1ccc2sc(N(CCCN(C)C)C(=O)c3ccc(S(=O)(=O)N4CCCC4)cc3)nc2c1		inactive: 10.4%
CCNC(=O)c1cc2ccccc2o1	inconclusive: 23.1 µM [activator, single point]	
Cc1cc(N=NC(=O)c2ccccc2)ccc1O	inconclusive: 6.51 µM [inhibitor, single point]	
c1cncc(CN=C2Nc3ccccc3CS2)c1	inconclusive: 20.6 µM [activator, single point]	
CCCc1nc2ccc(NC(=O)c3ccco3)cc2c(=O)n1Cc1ccc(Cl)cc1	inconclusive: 35.5 µM [inhibitor, single point]	
CCN(CC(=O)Nc1ccc(N2CCOCC2)cc1)Cc1nc2ccccc2c(=O)[nH]1	inconclusive: 10 µM [activator, partial curve, poor fit]	
CCc1ccc(Nc2ncnc3nc[nH]c23)cc1	inconclusive: 16.4 µM [activator, partial curve]	
CN(C)S(=O)(=O)c1cccc(NC(=O)COC(=O)/C=C/c2ccc3c(c2)OCO3)c1		inactive: -9.85%
CN(C)S(=O)(=O)c1cccc(NC(=O)c2ccc(N3CCOCC3)c([N+](=O)[O-])c2)c1	active: 18.4 µM	
O=C(CCNS(=O)(=O)c1ccccc1)NNC(=O)COc1ccc(Cl)cc1		inactive: -0.941%
N#C/C(=C\c1cccnc1)c1ccccn1	inconclusive: 23.1 µM [activator, partial curve]	
CCn1ncc(/C=C/C(=O)NCc2cnn(C)c2C)c1C		inactive: 0.529%
COCCCNc1nc(SCc2ccccc2)nc2sc3c(c12)CCC3	inconclusive: 16.4 µM [activator, partial curve, poor fit]	
CC1(C)CC(=O)C(C(=O)/C=C/c2ccco2)C(=O)C1		inactive: 15%
Cc1ccc(/C=C/C(=O)Nc2cccc3cccnc23)o1	inconclusive: 18.4 µM [activator, partial curve, poor fit]	
CCOP(=O)(c1ccccc1)C1(O)CCCCC1 (stereo unspecified)	inconclusive: 18.4 µM [activator, single point]	
NNC(=S)NC1CCCCCCCCCCC1	inconclusive: 29.1 µM [inhibitor, single point]	
COC(=O)C1=C(C)N(Cc2ccccc2)C(=NCc2ccc(OC)cc2)N[C@H]1c1ccccc1	inconclusive: 29.1 µM [activator, partial curve, poor fit]	
O=C(CSCc1cnn(-c2ccccc2)c1-n1cccc1)N1CCN(Cc2ccccc2)CC1	inconclusive: 29.1 µM [inhibitor, single point]	
Nc1nc(NCc2ccccc2)n(-c2ccccc2)n1		inactive: 3.41%
CCCCCCCCCC(=O)N[C@@H]1c2cc(OC)c(OC)cc2C[C@H]1O	inconclusive: 23.1 µM [inhibitor, single point]	

An excerpt of these results, in CSV form.
SMILES,Potency,"activity change, negative = inhibition"
O=C(CCNS(=O)(=O)c1ccccc1)NNC(=O)COc1ccc(Cl)cc1,,inactive: -0.941%
Nc1nc(NCc2ccccc2)n(-c2ccccc2)n1,,inactive: 3.41%
CCCCCCCCCC(=O)N[C@@H]1c2cc(OC)c(OC)cc2C[C@H]1O,"inconclusive: 23.1 µM [inhibitor, single point]",

A draw from above in order of SMILES length, falling.
SMILES	Potency	activity change, negative = inhibition
COCCCNc1nc(SCc2ccccc2)nc2sc3c(c12)CCC3	inconclusive: 16.4 µM [activator, partial curve, poor fit]	
Cc1ccc(/C=C/C(=O)Nc2cccc3cccnc23)o1	inconclusive: 18.4 µM [activator, partial curve, poor fit]	
CCOP(=O)(c1ccccc1)C1(O)CCCCC1 (stereo unspecified)	inconclusive: 18.4 µM [activator, single point]	

Continuation:

SMILES	Potency	activity change, negative = inhibition
CCCOc1ccc(CNC(=O)C2CCN(C(=O)N3CCOc4ccccc43)CC2)cc1	inconclusive: 13 µM [inhibitor, partial curve]	
COc1cc(C(=O)Nc2ccc(Cl)c([N+](=O)[O-])c2)cc(OC)c1OC	inconclusive: 5.8 µM [inhibitor, partial curve]	
O=C(NC1CCCC1)c1csc2c1CCCC2	inconclusive: 29.1 µM [activator, single point]	
COc1ccc(-c2ccc(OC(=O)NC3CCS(=O)(=O)C3)cc2)cc1 (stereo unspecified)	inconclusive: 29.1 µM [activator, single point]	
COc1ccc(C(=O)N/N=C(\C)c2ccc3c(c2)C2C=CCC2C(c2ccccc2)N3)cc1 (stereo unspecified)	inconclusive: 8.2 µM [inhibitor, partial curve]	
CCOc1ccc2cc(S(=O)(=O)N3CCN(C)CC3)ccc2c1		inactive: -5%
COc1ccc(C2c3[nH]c4ccccc4c3CCN2C(=O)c2ccc(=O)n(C)n2)c(F)c1 (stereo unspecified)		inactive: 27.9%
Cn1c(=O)oc2cc(S(=O)(=O)Nc3ccc(Cl)cc3)ccc21		inactive: -15.8%
CCc1cc(C(=O)N(Cc2ccccc2)c2c(N)n(CCOC)c(=O)[nH]c2=O)sc1C		inactive: -7.11%
CCOC(=O)c1sc2nc(COC(=O)c3c(F)cccc3F)[nH]c(=O)c2c1C		inactive: 18.1%
COc1ccccc1N1CCN(/N=C/C(Cl)=C/c2ccccc2)CC1	inconclusive: 11.6 µM [activator, partial curve]	
COc1cc(C(=O)OCC(=O)N2CCNC2=O)cc(Cl)c1OC		inactive: 11.6%
Cc1ccc(Nc2c(-c3ccc(C)o3)nc3cnccn23)cc1	inconclusive: 13 µM [activator, partial curve]	
O=[N+]([O-])c1cccc(OCCN2CCC(Cc3ccccc3)CC2)c1		inactive: -3.23%
Cc1ccc2cccc(OCc3ccc(F)cc3)c2n1		inactive: 0.47%
CCOC(=O)N1CC=C2C(C#N)=C(N)C(C#N)(C#N)[C@H](c3ccsc3)[C@H]2C1		inactive: -25.1%
O=C(c1ccccc1)c1cc2ccccc2oc1=O	inconclusive: 18.3 µM [activator, partial curve]	
Cc1ccc(SCC(=O)c2ccc[nH]2)cc1	inconclusive: 20.6 µM [activator, partial curve]	
COc1ccc(CC(=O)N(C)Cc2cccc(OC)c2OC)cc1S(=O)(=O)N1CCOCC1		inactive: 5.42%
COc1cccc(CNC(=O)C2CCC(CNS(=O)(=O)c3cccc4nsnc34)CC2)c1 (stereo unspecified)	inconclusive: 23.1 µM [inhibitor, partial curve, poor fit]	
CCOc1cccc(=O)c2c(C)n(Cc3ccccc3)c(C)c12	inconclusive: 18.3 µM [inhibitor, single point]	
CC(=O)n1cc(N(C(=O)CCl)c2ccc(Cl)cc2)c2ccccc21	inconclusive: 16.4 µM [inhibitor, single point]	
COCC(=O)Nc1ccc(S(=O)(=O)Nc2nccs2)cc1		inactive: 0.288%
Cc1ccc(NC(=O)Cn2nc(C(=O)O)c3ccccc3c2=O)cc1S(=O)(=O)N1CCOCC1		inactive: 8.16%

SMILES	Potency	activity change, negative = inhibition
O=C(Nc1ccc2c(c1)Cc1ccccc1-2)c1ccco1	inconclusive: 2.59 µM [activator, full curve]	
CCOC(=O)Cc1c(C)nc2cc(-c3ccc(C)cc3)[nH]n2c1=O	inconclusive: 16.4 µM [activator, partial curve]	
CNC[C@H]1Oc2ccc(NC(=O)Nc3ccc4c(c3)OCO4)cc2C(=O)N([C@H](C)CO)C[C@@H]1C	inconclusive: 18.3 µM [activator, single point]	
CCNC(=O)c1ccc(-n2nc(C(F)(F)F)c3c2CCCC3)cc1	inconclusive: 32.6 µM [inhibitor, single point]	
CN1CCc2c(sc(/N=C/c3c[nH]c4ccccc34)c2C(N)=O)C1		inactive: 9.58%
O=C(COc1ccc(Br)cc1)NNC(=O)c1ccc(-n2cncn2)c([N+](=O)[O-])c1		inactive: 8.56%
CS(=O)(=O)c1ccc(-c2cn3cc(C(=O)O)ccc3n2)cc1		inactive: -0.865%
CCOC(=O)C1(Cc2cccc(OC)c2)CCN(Cc2ccc3c(c2)OCCO3)CC1	inconclusive: 18.3 µM [inhibitor, single point]	
Cc1cccc(C(=O)Oc2ccccc2C(=O)N2CCOCC2)c1	inconclusive: 18.3 µM [inhibitor, partial curve, poor fit]	
COCn1c(-c2cccc(Br)c2)nc2ccccc21	inconclusive: 20.6 µM [activator, single point]	
COc1cccc(N2CCN(CC(=O)NC3=Nc4ccccc4N=C(C)C3c3ccccc3)CC2)c1 (stereo unspecified)	inconclusive: 25.9 µM [inhibitor, single point]	
CCN(CC)c1ccc(/C=N/NC(=O)CNC(=O)/C=C/c2ccco2)cc1	inconclusive: 7.3 µM [activator, partial curve, poor fit]	
Cc1ccc(NC(=O)NC(=O)c2ccccc2)cc1F	inconclusive: 0.82 µM [activator, full curve]	
Cc1ccc(NC(=O)COc2ccc(Cl)cc2Cl)cc1S(=O)(=O)N1CCOCC1	inconclusive: 18.3 µM [inhibitor, single point]	
NC(=O)/C(=N\OC(=O)c1ccco1)c1nc(-c2ccc(Br)cc2)cs1		inactive: 0.777%
CCN(CC)CC#CCC(C)(c1ccccc1)c1ccccc1		inactive: -21.9%
Cn1c(=O)c2c(nc(NCc3cccnc3)n2Cc2ccc(Cl)cc2)n(C)c1=O	active: 20.6 µM	
CC(=O)Nc1ccc(SCC(=O)c2cc(C)ccc2C)cc1	inconclusive: 20.6 µM [activator, partial curve, poor fit]	
CN(C)C(=S)Nc1ccc(N2CCOCC2)cc1	inconclusive: 1.83 µM [activator, full curve, poor fit]	
Cc1ccccc1N=Cc1cc2c(cc1O)OC(N)=C(C#N)C2c1ccccc1 (stereo unspecified)	inconclusive: 2.06 µM [inhibitor, partial curve, poor fit]	
COc1ccc2cc3cc(C(=O)N4CCN(C5CCCCC5)CC4)oc3nc2c1		inactive: 7.04%
Cc1cccc(C)c1NC(=O)c1ccc(OCc2c(C)noc2C)cc1	inconclusive: 4.61 µM [activator, single point]	
CCOC(=O)c1ccc(N2C(=O)CC(N3CCC(Nc4ccc(F)cc4)CC3)C2=O)cc1 (stereo unspecified)	inconclusive: 23.1 µM [inhibitor, partial curve, poor fit]	
